These results are taken from the supplement of paper PMC11732987, “Enantioselective OTUD7B fragment discovery through chemoproteomics screening and high-throughput optimisation” (Communications Chemistry, 2025).

Sequences of proteins named here, by UniProt entry; tags and fusion partners are left off. A change or cut given only in a name is not applied to a line headed by its entry. Residues count along the entry.
UniProt Q8IU85, 175-200: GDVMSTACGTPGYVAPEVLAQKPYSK
UniProt Q8N4T8: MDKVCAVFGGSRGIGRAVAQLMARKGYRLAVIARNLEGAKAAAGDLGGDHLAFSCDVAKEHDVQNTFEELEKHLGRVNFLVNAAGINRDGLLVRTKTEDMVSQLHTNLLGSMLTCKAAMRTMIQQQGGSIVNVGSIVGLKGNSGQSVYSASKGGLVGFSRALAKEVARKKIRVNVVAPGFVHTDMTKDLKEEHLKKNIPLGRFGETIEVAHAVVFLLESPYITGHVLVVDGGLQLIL
UniProt Q14012, 168-197: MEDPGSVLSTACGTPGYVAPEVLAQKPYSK
UniProt O14523: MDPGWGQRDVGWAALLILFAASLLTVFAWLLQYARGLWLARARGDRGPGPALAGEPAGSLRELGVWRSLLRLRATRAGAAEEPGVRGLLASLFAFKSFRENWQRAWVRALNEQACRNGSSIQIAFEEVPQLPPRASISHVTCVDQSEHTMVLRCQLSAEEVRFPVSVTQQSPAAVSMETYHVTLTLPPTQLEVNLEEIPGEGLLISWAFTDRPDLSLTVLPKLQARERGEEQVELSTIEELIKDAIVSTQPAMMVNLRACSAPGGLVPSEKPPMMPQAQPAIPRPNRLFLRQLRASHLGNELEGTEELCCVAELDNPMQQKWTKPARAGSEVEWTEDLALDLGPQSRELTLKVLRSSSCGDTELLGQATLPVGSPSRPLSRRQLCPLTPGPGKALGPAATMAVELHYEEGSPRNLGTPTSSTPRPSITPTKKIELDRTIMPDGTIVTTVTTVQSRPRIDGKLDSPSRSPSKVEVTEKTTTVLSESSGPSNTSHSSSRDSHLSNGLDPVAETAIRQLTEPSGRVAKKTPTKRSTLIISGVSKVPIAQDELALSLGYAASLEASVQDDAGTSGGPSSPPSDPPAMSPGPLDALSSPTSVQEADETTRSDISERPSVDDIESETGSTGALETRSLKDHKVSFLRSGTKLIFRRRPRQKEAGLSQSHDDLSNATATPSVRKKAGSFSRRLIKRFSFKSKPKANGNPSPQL
UniProt O75808: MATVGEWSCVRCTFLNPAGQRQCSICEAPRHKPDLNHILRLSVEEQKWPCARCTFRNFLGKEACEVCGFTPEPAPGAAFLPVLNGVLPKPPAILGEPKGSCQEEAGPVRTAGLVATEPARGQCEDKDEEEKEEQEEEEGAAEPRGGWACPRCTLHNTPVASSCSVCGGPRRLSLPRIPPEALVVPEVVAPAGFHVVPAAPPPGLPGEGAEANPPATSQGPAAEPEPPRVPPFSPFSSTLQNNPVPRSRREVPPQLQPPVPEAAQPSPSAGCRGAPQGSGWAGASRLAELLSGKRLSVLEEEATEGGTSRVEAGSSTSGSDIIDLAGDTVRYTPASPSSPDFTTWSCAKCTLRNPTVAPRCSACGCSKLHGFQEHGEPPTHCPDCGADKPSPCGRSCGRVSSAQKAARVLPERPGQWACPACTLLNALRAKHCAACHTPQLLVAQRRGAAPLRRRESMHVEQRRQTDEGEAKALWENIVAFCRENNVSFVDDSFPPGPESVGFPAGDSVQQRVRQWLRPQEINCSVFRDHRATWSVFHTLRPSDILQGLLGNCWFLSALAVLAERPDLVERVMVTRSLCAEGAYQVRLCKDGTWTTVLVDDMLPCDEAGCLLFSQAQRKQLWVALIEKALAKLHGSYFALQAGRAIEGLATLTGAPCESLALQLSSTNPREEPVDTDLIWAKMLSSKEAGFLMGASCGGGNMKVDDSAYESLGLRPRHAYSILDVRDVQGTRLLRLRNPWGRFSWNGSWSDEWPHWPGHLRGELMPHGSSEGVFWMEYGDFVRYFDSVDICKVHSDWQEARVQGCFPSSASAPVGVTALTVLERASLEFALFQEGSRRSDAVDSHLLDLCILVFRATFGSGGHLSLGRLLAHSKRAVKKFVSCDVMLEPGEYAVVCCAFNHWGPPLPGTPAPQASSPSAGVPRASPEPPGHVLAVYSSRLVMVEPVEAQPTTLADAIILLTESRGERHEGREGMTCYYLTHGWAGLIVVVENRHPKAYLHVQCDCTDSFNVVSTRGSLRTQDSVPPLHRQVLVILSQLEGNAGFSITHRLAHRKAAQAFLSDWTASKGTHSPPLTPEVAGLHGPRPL
UniProt Q6ZRI6: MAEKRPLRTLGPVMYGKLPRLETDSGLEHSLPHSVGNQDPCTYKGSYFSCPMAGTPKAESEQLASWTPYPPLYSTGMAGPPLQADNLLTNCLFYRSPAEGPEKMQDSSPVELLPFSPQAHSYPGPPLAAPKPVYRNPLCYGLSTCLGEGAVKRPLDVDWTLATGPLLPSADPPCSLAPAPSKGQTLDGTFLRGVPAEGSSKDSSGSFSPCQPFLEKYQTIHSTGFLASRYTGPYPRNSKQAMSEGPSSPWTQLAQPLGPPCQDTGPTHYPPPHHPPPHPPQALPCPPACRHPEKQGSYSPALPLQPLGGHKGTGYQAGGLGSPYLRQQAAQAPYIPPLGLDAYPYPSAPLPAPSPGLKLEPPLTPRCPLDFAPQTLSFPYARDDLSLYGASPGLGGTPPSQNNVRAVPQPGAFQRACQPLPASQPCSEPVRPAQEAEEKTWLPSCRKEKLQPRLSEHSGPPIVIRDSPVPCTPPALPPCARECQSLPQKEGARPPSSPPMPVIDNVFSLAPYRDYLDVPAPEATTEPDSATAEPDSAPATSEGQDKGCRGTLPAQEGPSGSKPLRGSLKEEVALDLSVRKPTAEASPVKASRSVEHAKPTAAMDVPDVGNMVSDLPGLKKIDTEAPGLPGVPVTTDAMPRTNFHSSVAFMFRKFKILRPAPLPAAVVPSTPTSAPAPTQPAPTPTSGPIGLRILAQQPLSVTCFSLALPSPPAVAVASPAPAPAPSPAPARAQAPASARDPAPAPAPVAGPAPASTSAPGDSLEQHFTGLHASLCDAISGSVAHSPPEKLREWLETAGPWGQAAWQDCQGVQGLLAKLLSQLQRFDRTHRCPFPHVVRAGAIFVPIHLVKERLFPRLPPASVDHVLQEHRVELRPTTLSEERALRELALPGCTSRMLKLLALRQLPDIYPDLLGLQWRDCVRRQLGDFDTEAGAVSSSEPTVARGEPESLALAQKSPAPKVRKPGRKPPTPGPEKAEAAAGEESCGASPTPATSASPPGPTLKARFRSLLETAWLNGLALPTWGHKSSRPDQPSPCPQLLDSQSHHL
UniProt Q8NFC6: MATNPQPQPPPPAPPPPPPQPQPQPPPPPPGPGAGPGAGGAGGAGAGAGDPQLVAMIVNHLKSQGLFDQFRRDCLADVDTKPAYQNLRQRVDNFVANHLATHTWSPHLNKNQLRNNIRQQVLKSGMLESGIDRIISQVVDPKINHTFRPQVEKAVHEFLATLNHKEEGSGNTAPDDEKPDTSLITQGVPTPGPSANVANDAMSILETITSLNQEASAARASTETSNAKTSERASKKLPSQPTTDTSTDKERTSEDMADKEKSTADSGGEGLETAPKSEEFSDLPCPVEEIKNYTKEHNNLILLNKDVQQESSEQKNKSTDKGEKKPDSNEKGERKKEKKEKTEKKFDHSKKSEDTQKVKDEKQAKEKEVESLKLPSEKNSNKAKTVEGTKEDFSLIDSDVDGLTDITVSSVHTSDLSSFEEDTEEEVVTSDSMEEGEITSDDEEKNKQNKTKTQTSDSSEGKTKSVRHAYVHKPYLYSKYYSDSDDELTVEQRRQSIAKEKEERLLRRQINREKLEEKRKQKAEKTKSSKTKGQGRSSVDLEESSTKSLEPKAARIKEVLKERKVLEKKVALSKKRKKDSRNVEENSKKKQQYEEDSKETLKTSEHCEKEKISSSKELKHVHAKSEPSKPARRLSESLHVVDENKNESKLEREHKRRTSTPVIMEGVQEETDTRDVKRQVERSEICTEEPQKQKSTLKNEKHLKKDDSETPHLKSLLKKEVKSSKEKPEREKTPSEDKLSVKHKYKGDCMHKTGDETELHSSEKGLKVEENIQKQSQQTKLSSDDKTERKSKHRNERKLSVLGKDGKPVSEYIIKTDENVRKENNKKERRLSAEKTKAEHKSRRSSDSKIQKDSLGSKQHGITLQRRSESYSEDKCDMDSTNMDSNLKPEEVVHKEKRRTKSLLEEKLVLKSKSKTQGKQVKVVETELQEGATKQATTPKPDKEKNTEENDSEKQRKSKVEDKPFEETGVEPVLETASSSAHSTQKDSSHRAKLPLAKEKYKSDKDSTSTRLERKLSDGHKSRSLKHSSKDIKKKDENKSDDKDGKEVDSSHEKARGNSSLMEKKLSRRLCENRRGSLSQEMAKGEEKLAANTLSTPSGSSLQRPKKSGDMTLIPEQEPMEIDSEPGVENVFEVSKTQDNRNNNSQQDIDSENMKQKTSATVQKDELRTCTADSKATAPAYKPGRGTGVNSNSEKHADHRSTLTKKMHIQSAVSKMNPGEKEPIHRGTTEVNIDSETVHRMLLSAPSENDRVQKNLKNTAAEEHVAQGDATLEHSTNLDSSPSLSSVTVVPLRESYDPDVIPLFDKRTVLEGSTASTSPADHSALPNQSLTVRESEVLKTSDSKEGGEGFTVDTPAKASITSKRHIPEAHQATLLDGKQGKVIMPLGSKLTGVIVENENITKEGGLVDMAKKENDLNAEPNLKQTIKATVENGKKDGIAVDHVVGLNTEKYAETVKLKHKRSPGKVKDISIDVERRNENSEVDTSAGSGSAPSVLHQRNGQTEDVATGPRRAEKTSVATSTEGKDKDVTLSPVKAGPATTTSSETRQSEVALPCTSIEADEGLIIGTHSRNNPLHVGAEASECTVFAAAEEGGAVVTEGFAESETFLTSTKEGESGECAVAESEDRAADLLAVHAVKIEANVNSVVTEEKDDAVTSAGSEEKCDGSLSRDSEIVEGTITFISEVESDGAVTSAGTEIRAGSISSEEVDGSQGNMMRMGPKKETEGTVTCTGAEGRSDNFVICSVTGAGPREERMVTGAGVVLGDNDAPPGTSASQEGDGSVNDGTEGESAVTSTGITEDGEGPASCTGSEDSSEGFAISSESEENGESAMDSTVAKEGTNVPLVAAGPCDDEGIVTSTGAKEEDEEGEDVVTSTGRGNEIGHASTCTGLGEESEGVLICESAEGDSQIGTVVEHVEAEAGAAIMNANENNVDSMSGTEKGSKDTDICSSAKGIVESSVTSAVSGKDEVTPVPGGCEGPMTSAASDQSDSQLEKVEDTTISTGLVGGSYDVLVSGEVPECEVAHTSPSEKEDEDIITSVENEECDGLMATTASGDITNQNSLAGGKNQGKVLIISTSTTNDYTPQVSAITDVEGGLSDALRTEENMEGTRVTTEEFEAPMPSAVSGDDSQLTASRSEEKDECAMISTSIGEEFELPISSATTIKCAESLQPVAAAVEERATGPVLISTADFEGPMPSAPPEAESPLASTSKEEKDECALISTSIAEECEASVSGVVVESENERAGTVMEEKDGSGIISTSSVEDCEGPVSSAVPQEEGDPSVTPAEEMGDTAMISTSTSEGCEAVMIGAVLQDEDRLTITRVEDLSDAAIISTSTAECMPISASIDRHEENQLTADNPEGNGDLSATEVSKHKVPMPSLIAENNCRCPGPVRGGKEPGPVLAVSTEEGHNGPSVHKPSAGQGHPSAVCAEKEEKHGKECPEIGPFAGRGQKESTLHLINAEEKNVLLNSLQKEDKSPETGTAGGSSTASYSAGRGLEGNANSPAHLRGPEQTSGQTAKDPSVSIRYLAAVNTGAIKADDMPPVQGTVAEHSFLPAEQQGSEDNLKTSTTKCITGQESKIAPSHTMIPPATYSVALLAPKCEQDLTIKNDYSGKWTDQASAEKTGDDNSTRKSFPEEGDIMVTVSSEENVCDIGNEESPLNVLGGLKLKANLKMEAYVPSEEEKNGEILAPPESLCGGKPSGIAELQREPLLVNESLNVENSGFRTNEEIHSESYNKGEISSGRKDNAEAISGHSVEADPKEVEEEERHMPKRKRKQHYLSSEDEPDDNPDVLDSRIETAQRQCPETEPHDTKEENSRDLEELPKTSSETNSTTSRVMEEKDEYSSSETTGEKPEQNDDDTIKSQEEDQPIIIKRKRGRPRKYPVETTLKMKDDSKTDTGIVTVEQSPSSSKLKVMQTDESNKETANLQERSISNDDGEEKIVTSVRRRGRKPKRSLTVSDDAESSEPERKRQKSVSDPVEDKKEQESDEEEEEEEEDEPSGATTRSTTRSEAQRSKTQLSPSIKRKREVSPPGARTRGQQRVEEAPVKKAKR
UniProt P35613: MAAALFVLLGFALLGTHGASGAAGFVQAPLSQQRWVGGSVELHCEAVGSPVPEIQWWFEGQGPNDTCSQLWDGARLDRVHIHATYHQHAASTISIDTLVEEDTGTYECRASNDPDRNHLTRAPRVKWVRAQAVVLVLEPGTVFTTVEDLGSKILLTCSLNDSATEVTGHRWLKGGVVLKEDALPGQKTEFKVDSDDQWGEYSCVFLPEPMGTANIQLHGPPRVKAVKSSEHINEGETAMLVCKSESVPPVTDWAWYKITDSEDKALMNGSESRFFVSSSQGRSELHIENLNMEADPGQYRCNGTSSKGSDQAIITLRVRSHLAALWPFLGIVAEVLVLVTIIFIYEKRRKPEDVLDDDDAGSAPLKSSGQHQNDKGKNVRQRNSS

The list shows a part of the results. The data scatter; read single values as rough.

Compound in one experiment: ClCC(=O)N[C@@H]1CCCc2ccccc12
Briefly: log2 mean competition ratio of IA-DTB cysteine labelling (DMSO/compound) (log2 ratio); higher = stronger cysteine engagement by compound. To be noted: 50 µM; treatment time: 4 h; cell line lysate: HEK293T. The method, then:
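IA-DTB competitive cysteine chemoproteomics in HEK293T RIPA lysate. Lysates were treated with compound 29 or 30 at 50 or 200 µM for 4 h, then IA-DTB (500 µM, 1 h), trypsin-digested, NeutrAvidin-enriched and analysed by diaPASEF. Competition ratio = intensity DMSO / intensity compound (n=4 treated, n=64 DMSO); binding: mean log2 CR ≥ 1 and p ≤ 0.05 plus QC filters. Target is the cysteine site.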
As for BORCS7 C28 (UniProt Q96B45), the “log2 mean competition ratio” value stood at 0.186.

In the case of BORA C526 (UniProt Q6PGQ7), the “log2 mean competition ratio” value turned out to be 0.305.

Regarding CAMK1D C182 (UniProt Q8IU85), the “log2 mean competition ratio” value stood at 0.164.

In the case of BRIX1 C52 (UniProt Q8TDN6), the “log2 mean competition ratio” value was -0.0604.

Turning to CBR4 C5 (UniProt Q8N4T8), the “log2 mean competition ratio” value was -0.0279.

Turning to BOP1 C108 (UniProt Q14137), the “log2 mean competition ratio” value is -0.114.

With CAMSAP2 C512 (UniProt Q08AD1), the “log2 mean competition ratio” value turned out to be 0.0645.

As for CAD C986, the “log2 mean competition ratio” value was 0.0942.

For the target CAPN7 C242 (UniProt Q9Y6W3), the “log2 mean competition ratio” value was -0.0953.

With BOLA3 C59 (UniProt Q53S33), the “log2 mean competition ratio” value was -0.176.

As to CAMK1 C179 (UniProt Q14012), the “log2 mean competition ratio” value was determined as 0.0679.

In the case of C1orf112 C103 (UniProt Q9NSG2), the “log2 mean competition ratio” value was 0.00792.

On to C2CD2L C115 (UniProt O14523), for which the “log2 mean competition ratio” value is -0.00249.

For the target CACNA2D2 C1083, the “log2 mean competition ratio” value is -0.188.

As to BPTF C445, the “log2 mean competition ratio” value is -0.182.

As for CAPN15 C101 (UniProt O75808), the “log2 mean competition ratio” value stood at 0.0198.

CAND1 C954: the “log2 mean competition ratio” value is 0.0342.

With CABIN1 C571 (UniProt Q9Y6J0), the “log2 mean competition ratio” value was 0.114.

With BRCC3 C228 (UniProt P46736), the “log2 mean competition ratio” value was found to be 0.0154.

Turning to CASP10 C43 (UniProt Q92851), the “log2 mean competition ratio” value stood at 0.225.

Consider BRD1 C805, for which the “log2 mean competition ratio” value worked out at 0.058.

Consider C15orf39 C892 (UniProt Q6ZRI6), for which the “log2 mean competition ratio” value was -0.111.

Take BOD1L1 C2438 (UniProt Q8NFC6): the “log2 mean competition ratio” value was -0.0449.

In the case of BSG C242 (UniProt P35613), the “log2 mean competition ratio” value is -0.159.

Consider BRAT1 C487 (UniProt Q6PJG6), for which the “log2 mean competition ratio” value stood at 0.223.

For BRAP C110 (UniProt Q7Z569), the “log2 mean competition ratio” value is -0.167.

With BPTF C1969, the “log2 mean competition ratio” value is -0.201.

Take BTAF1 C371 (UniProt O14981): the “log2 mean competition ratio” value was -0.0819.

Turning to CASK C633 (UniProt O14936), the “log2 mean competition ratio” value was -0.106.

For C15orf39 C50 (UniProt Q6ZRI6), the “log2 mean competition ratio” value worked out at 0.0358.

For the target BUD31 C78 (UniProt P41223), the “log2 mean competition ratio” value was -0.0699.

As to CAMSAP1 C272 (UniProt Q5T5Y3), the “log2 mean competition ratio” value was -0.143.

For the target C11orf68 C214 (UniProt Q9H3H3), the “log2 mean competition ratio” value was -0.665.

Take BOD1L1 C749 (UniProt Q8NFC6): the “log2 mean competition ratio” value stood at 0.108.

For the target CADM1 C313 (UniProt Q9BY67), the “log2 mean competition ratio” value is -0.0884.

Take BPNT1 C243: the “log2 mean competition ratio” value stood at 0.358.

For the target BZW2 C350 (UniProt Q9Y6E2), the “log2 mean competition ratio” value turned out to be 0.212.

The same experiment, now with this note: 200 µM; treatment time: 4 h; cell line lysate: HEK293T.
For the target BORCS7 C28 (UniProt Q96B45), the “log2 mean competition ratio” value amounted to 0.0419.

Take BORA C526 (UniProt Q6PGQ7): the “log2 mean competition ratio” value is -0.168.

CAMK1D C182 (UniProt Q8IU85): the “log2 mean competition ratio” value is -0.127.

Turning to BRIX1 C52 (UniProt Q8TDN6), the “log2 mean competition ratio” value was -0.187.

Take CBR4 C5 (UniProt Q8N4T8): the “log2 mean competition ratio” value is 0.0255.

In the case of BOP1 C108 (UniProt Q14137), the “log2 mean competition ratio” value is -0.0969.

CAMSAP2 C512 (UniProt Q08AD1): the “log2 mean competition ratio” value was -0.0241.

As for CAD C986, the “log2 mean competition ratio” value was -0.177.

Take CAPN7 C242 (UniProt Q9Y6W3): the “log2 mean competition ratio” value is -0.104.

As for BOLA3 C59 (UniProt Q53S33), the “log2 mean competition ratio” value turned out to be 0.0135.

Take CAMK1 C179 (UniProt Q14012): the “log2 mean competition ratio” value is 0.149.

Consider C1orf112 C103 (UniProt Q9NSG2), for which the “log2 mean competition ratio” value was -0.109.

As to C2CD2L C115 (UniProt O14523), the “log2 mean competition ratio” value is 0.128.

Take CACNA2D2 C1083: the “log2 mean competition ratio” value turned out to be 0.118.

Take BPTF C445: the “log2 mean competition ratio” value was -0.0523.

Consider CAPN15 C101 (UniProt O75808), for which the “log2 mean competition ratio” value worked out at 0.348.

As for CAND1 C954, the “log2 mean competition ratio” value is -0.205.

Regarding CABIN1 C571 (UniProt Q9Y6J0), the “log2 mean competition ratio” value was 0.258.

Turning to BRCC3 C228 (UniProt P46736), the “log2 mean competition ratio” value was 0.0478.

On to CASP10 C43 (UniProt Q92851), for which the “log2 mean competition ratio” value is -0.103.

Consider BRD1 C805, for which the “log2 mean competition ratio” value is -0.0114.

For the target C15orf39 C892 (UniProt Q6ZRI6), the “log2 mean competition ratio” value was -0.144.

As for BOD1L1 C2438 (UniProt Q8NFC6), the “log2 mean competition ratio” value is -0.316.

As to BSG C242 (UniProt P35613), the “log2 mean competition ratio” value was found to be 0.0145.

As for BRAT1 C487 (UniProt Q6PJG6), the “log2 mean competition ratio” value came to 0.432.

Regarding BRAP C110 (UniProt Q7Z569), the “log2 mean competition ratio” value is -0.0845.

With BPTF C1969, the “log2 mean competition ratio” value was -0.111.

Turning to BTAF1 C371 (UniProt O14981), the “log2 mean competition ratio” value is -0.0628.

Regarding CASK C633 (UniProt O14936), the “log2 mean competition ratio” value came out at 0.137.

Regarding C15orf39 C50 (UniProt Q6ZRI6), the “log2 mean competition ratio” value was 0.14.

Turning to BUD31 C78 (UniProt P41223), the “log2 mean competition ratio” value was -0.251.

Take CAMSAP1 C272 (UniProt Q5T5Y3): the “log2 mean competition ratio” value amounted to 0.134.

With C11orf68 C214 (UniProt Q9H3H3), the “log2 mean competition ratio” value is -0.239.

Take BOD1L1 C749 (UniProt Q8NFC6): the “log2 mean competition ratio” value is 0.486.

Take CADM1 C313 (UniProt Q9BY67): the “log2 mean competition ratio” value was determined as 0.177.

For the target BZW2 C350 (UniProt Q9Y6E2), the “log2 mean competition ratio” value is -0.233.
